Test system: Tg (mpx: EGFP) zebrafish
Test: Zebrafish immunocompromised model
Type: in vivo
Conditions: 25 µM·L^−1, with 100 µg·mL^−1 vinorelbine, compared to the model group

SMILES: C=C1CCC[C@]2(C)C=C3OC(=O)C(C)=C3C[C@@H]12 [atractylenolide I]
- immune enhancement (number of neutrophils): immune-enhancing effect

Reference: article PMC13424379 (Fundamental Research, 2024)
